{
  "source": "patent US8710179B2",
  "about": "“Compositions and methods for concentrating and depleting microorganisms” (priority 2006, dated 2014)",
  "key": {"GFP-expressing E. coli": {"tested_on": "GFP-expressing E. coli", "experiment": "Visualization of binding by confocal fluorescent microscopy"}, "E. coli [1]": {"tested_on": "E. coli", "type": "cell-based", "settings": "1×10^6 CFU/ml, 30 minutes, plated on LB-agar", "description": "(§1) To assess bacterial binding to the beads, filtrates were subjected to serial 10 fold dilutions and plated on LB agar plates. Cell counts were determined using the drop plate method (three 20 μl drops onto LB agar plates) after overnight incubation at 37° C. For the viability study, resins were spread directly on LB agar plates and incubated similarly. For kinetic studies, resins were incubated with 1×10^6 CFU/ml E. coli in LB for up to 15 minutes and filtered after the indicated time periods then plated for CFU count.\nThe non-cytotoxicity of the beads-bound polymers was assessed by the viability of the polymer-captured bacteria. E. coli was incubated with beads-bound polymers (10^6 CFU/ml/mg resin), and after filtration, samples of the resins and the filtrates were plated on LB-agar individually.\nFIG. 6 presents a series of images of LB-agar plates, showing the viability of the captured E. coli cells (1×10^6 CFU/ml) which were incubated for 30 minutes with deprotected (FIGS. 6A1 and 6A2) and Boc-protected (FIGS. 6B1 and 6B2) K(NC12K)7NH2-loaded resin beads, wherein FIGS. 6A1 and 6B1 show the plates of the plated filtrates and FIGS. 6A2 and 6B2 show the plates of filtered and plated beads."}, "E. coli [2]": {"tested_on": "E. coli", "experiment": "Depletion assay (repeated incubation/filtration cycles)", "type": "binding, Escherichia coli"}, "E. coli [3]": {"tested_on": "E. coli", "experiment": "Bacterial capture in human urine", "type": "binding", "settings": "human urine inoculated with E. coli"}, "E. coli [4]": {"tested_on": "E. coli", "experiment": "Bacterial binding assay by real-time SPR on polymer-coated chip", "description": "Purified resin-free polymers were immobilized onto the CM5 sensor chip (BIAcore, Uppsala, Sweden) via the terminal carboxyl group using 2-(2-pyridinyldithio)ethaneamine (PDEA). Carboxyl activation was achieved as follows. Morpholino-ethanesulfonic acid (MES buffer, 0.1 ml of 0.1 M) at pH 5.0 was used to solubilize 0.1 mg of the polymer. The solution was mixed with PDEA to final concentration of 22 mM and ethyl-3-(3-dimethylaminopropyl)-carbodiimide (EDC) to final concentration of 13 mM, incubated for 1 hour on ice and then placed in a dialysis tube (floating in buffer) to remove the excess reagents. In parallel, a 1:1 solution (20 μl) of EDC (0.4 M 1-ethyl-3-(3-dimethylaminopropyl)-carbodiimide in water):NHS (0.1 M N-hydroxysuccinimide in water) was injected at a flow rate of 10 μl/minute, to activate the chip surface. Thereafter, 30 μl of a solution of cystamine was injected to introduce a disulfide group. The disulfides bonds were reduced with 30 μl DTE (0.1 M dithioerythritol or dithiothreitol in 0.1 M sodium borate pH 8.5). Subsequently, the dialyzed polymer solution (60 μl containing 10 μg) was injected to immobilizing the polymer while excess reactive groups on the chip were deactivated using a 40 μl solution of PDEA (20 mM of 2-(2-pyridinyldithio)ethaneamine and 1 M NaCl in 0.1 M sodium acetate pH 4.0).\nBacterial binding to the polymer was determined by surface plasmon resonance (SPR) using the optical biosensor system BIAcore 2000 (BIAcore, Uppsala, Sweden). The experimental procedure and data interpretation were performed essentially as described previously. Briefly, to monitoring bacterial binding, 100 μl of E. coli in saline (at the concentrations of 10^3, 10^4, 10^5 and 10^6 CFU/ml) were injected over the polymer-coated chip at a flow rate of 20 μl/minutes and collected by an integrated sample collector after each run. Aliquots from each run were platted on LB agar plates for enumeration after overnight incubation at 37° C. Bound bacteria were estimated by comparing the CFU count before and after each run.\nFor real-time monitoring of bacterial capture the present inventors have developed a model system based on the SPR technology that normally enables binding measurements between immobilized receptor molecules and soluble ligands. […] In the example presented herein, the polymer was immobilized onto the sensor chip and bacteria were injected over the polymer-bound surface and their binding monitored in real-time. Each experimental run included injection of a bacterial suspension of known concentration during 600 seconds, followed immediately by a PBS wash step. The measurements presented herein using live bacterial cells could not be presented in terms of molar concentration; however the SPR response indicated similar affinity values of the chip-immobilized polymers to intact bacterial cells compared to the affinity measured for resin-free polymers."}, "E. coli [5]": {"tested_on": "E. coli", "experiment": "Bacteria capture assay with polymer-loaded resin beads (incl. kinetic studies)", "type": "binding, Escherichia coli ATCC 35218", "description": "Various concentrations of bacteria in 500 μl luria bertani broth (LB) were shaken at room temperature in the presence of deprotected polymer-loaded beads (1.8 mg of polymer per sample) or protected polymer-loaded and unloaded beads as a control experiment in a centrifuge tube equipped with a 10 μm cutoff membrane (Whatman polypropylene mesh VectaSpin Micro). After 30 minutes incubation the samples were centrifuged at 21,000×g for 5 minutes to separate beads from unbound bacteria and further analyzed as follows.\nas §1\n“Bound E. coli (CFU/mg resin)” represents the capturing capacity of bacterial binding per one milligram of polymer-loaded resin beads as assessed after 30 minutes incubation using the capture assay as presented herein (column 9 in Table 3)."}, "E. coli [6]": {"tested_on": "E. coli", "experiment": "Bacterial capture in whole human blood", "type": "binding", "settings": "whole human blood inoculated with E. coli"}},
  "note": "At least one peptide structure holds a part that was inferred or is arguable (an end, a ring closure or a residue). For at least one compound, name, drawing or mass did not settle the structure.",
  "data": [
    {"smiles": "NCCCC[C@H](NC(=O)CCCCCCCCCCCNC(=O)[C@H](CCCCN)NC(=O)CCCCCCCCCCCNC(=O)[C@H](CCCCN)NC(=O)CCCCCCCCCCCNC(=O)[C@H](CCCCN)NC(=O)CCCCCCCCCCCNC(=O)[C@H](CCCCN)NC(=O)CCCCCCCCCCCNC(=O)[C@H](CCCCN)NC(=O)CCCCCCCCCCCNC(=O)[C@H](CCCCN)NC(=O)CCCCCCCCCCCNC(=O)[C@@H](N)CCCCN)C(N)=O", "note": "[K(NC12K)7NH2]", "values": [
      {"measurement": "effect of 5 minutes treatment with 70% ethanol", "setting": "GFP-expressing E. coli; polymer-captured bacteria on beads", "result": "dissociation of the polymer-captured bacteria"},
      {"measurement": "bacterial binding seen by fluorescence confocal microscopy", "setting": "GFP-expressing E. coli; resin beads, 30 minutes incubation", "result": "clearly interacted"},
      {"measurement": "viable bacteria in the filtrate", "setting": "E. coli [1]", "result": "did not contain viable bacteria"},
      {"measurement": "filtrate culture", "setting": "E. coli [2]; first two cycles, 1×10^6 CFU/ml per cycle, 1.8 mg, negative = less than 50 CFU/ml", "result": "negative cultures"},
      {"measurement": "filtrate CFU count", "setting": "E. coli [2]; fourth cycle", "result": "1×10^6 CFU/ml"},
      {"measurement": "estimated binding capacity", "setting": "E. coli [2]; per milligram of beads-bound polymer (approximately 300 beads), from FIGS. 2a and 2c", "result": "more than 1×10^6 CFU"},
      {"measurement": "filtrate CFU count", "setting": "E. coli [2]; third cycle", "result": "7×10^5 CFU/ml"},
      {"measurement": "bacterial capture", "setting": "E. coli [3]", "result": "able to capture bacteria"},
      {"measurement": "concentration at which chip maximal binding capacity was achieved", "setting": "E. coli [4]", "result": "10^5 CFU/ml"},
      {"measurement": "CFU counted in sample collected at exit from the chip", "setting": "E. coli [4]; 10^4 or 10^5 CFU/ml injected", "result": "about 10 CFU"},
      {"measurement": "bacterial binding", "setting": "E. coli [4]; 10^6 CFU/ml injected", "result": "about 90%"},
      {"measurement": "bacterial release/dissociation at the wash stage", "setting": "E. coli [4]; all concentrations except the highest (10^6 CFU/ml)", "result": "no bacterial release/dissociation was detected"},
      {"measurement": "bacteria in sample collected at exit from the chip", "setting": "E. coli [4]; up to 10^3 CFU/ml injected", "result": "not detected"},
      {"measurement": "bacterial binding", "setting": "E. coli [4]; up to 10^5 CFU/ml injected", "result": "~100", "unit": "%"},
      {"measurement": "filtrate culture", "setting": "E. coli [5]; kinetic study, after 60 seconds incubation and thereafter, negative = less than 50 CFU/ml", "result": "negative cultures"},
      {"measurement": "bacterial count in filtrate", "setting": "E. coli [5]; kinetic study, from 10^6 CFU/ml, after 30 seconds incubation", "result": "10^4 CFU/ml"},
      {"measurement": "fold higher bacterial binding capabilities as compared to C12K(NC8K)7NH2", "setting": "E. coli [5]; resin-bound", "result": 1000, "unit": "fold"},
      {"measurement": "bacterial capture", "setting": "E. coli [6]", "result": "able to capture bacteria"}
    ]}
  ]
}
